Data taken from patent publication EP4595978A1, “ANTI-CD33 ANTIBODY AND ANTI-CD33 ANTIBODY-DRUG CONJUGATE AND USE THEREOF” (SystImmune, Inc., priority 2022, dated 2024).
These are yes or no findings as the source states them, for the method shown. Some binding calls cover weakened binding; strength is not graded here.

Amino acid sequences for entries named in this document (tags omitted). Residues count along the entry.
UniProt P20138, residues 18-259: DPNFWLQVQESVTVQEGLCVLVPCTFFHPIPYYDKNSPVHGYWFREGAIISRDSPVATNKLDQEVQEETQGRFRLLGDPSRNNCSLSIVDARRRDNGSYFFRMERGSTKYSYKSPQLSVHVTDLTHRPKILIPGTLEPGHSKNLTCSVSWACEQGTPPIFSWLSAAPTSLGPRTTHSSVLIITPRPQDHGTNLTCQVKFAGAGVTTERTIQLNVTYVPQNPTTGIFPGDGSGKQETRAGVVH

Columns and labels:
[1] = molecular target: T1, recombinant human CD33 protein (Homo sapiens, UniProt P20138); experiment: ELISA on recombinant human CD33 (figure legend)
[2] = molecular target: T1, recombinant human CD33 protein; experiment: ELISA, recombinant human CD33 coated at 0.5 ug/mL

B1: anti-CD33 naked antibody (Antibody 2) (antibody, human IgG1, kappa, V domains shown)
VH: EVQLVQSGAEVKKPGSSVKVSCKASGYTITDSNIHWVRQAPGQSLEWIGYIYPYNGGTDYNQKFKNRATLTVDNPTNTAYMELSSLRSEDTAFYYCVNGNPWLAYWGQGTLVTVSS
VL: DIQLTQSPSTLSASVGDRVTITCRASESLDNYGIRFLTWFQQKPGKAPKLLMYAASNQGSGVPSRFSGSGSGTEFTLTISSLQPDDFATYYCQQTKEVPWSFGQGTKVEVKR
For B1, the binding [1] was “binds” and the binding [2] was “binds”.
